Results are given in words; binding and its absence hold for the method and conditions named. Binding seen in cells or lysates may run through a third protein. Some results given as binding are weak or reduced against the parent protein; the word gives no strength.

The chains behind the UniProt entries cited, without tags or fusion partners.
UniProt Q3KR59: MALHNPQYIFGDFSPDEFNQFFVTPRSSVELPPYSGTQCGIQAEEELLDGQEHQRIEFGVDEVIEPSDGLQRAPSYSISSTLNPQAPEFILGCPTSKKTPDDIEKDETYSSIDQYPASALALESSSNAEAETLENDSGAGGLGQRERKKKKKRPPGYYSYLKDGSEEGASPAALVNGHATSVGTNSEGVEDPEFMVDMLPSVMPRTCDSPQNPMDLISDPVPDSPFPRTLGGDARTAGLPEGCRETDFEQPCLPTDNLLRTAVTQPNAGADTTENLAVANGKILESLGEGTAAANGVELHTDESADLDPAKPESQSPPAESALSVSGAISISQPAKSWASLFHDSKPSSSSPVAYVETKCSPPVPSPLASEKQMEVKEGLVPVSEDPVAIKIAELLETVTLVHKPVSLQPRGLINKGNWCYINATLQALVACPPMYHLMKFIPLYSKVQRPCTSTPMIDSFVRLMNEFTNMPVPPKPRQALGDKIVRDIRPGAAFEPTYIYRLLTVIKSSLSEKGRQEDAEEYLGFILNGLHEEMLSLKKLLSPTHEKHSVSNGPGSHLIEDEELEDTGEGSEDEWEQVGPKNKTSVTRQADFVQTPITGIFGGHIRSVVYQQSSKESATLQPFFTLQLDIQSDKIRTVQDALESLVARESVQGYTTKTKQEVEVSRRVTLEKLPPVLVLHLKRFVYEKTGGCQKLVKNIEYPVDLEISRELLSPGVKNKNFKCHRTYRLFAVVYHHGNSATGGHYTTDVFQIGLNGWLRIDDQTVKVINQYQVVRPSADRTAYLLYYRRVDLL
UniProt P62961: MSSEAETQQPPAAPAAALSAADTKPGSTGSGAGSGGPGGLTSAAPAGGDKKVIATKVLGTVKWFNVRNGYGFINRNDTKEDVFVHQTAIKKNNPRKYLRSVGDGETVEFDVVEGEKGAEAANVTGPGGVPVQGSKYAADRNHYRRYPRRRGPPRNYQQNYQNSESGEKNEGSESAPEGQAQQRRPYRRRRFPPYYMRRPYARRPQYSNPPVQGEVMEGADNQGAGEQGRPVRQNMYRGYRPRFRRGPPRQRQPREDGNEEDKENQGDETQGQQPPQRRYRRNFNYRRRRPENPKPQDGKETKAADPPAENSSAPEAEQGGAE

Test [1] addresses Ubiquitin-specific peptidase 10 (rat (endogenous in PC12)) (UniProt Q3KR59). The experiment in a line: co-IP; PC12 cell lysate, precleared, immunoprecipitated with anti-USP10 or IgG overnight at 4°C, protein A/G plus agarose; blots with anti-USP10 and anti-YBX1.
For test [2], the target named is Recombinant glutathione transferase-USP10 (UniProt Q3KR59). In words: pull-down; GST-USP10 or GST on glutathione Sepharose 4B microspheres added to total lysate of PC12 cells, overnight at 4°C; blots with anti-USP10 and anti-YBX1; only the target purified.

Take “Y-box binding protein-1 (from UniProt P62961 1-322)”: the binding entry in test [1] and in test [2] was “binds” each time.

The record behind these values is article PMC11520850.
